Eleven molecules from publication PMC11605229 can be followed below.

Results are given in words; binding and its absence hold for the method and conditions named. Binding seen in cells or lysates may run through a third protein. These calls come from enrichment with a bait or labelling near it, and not all partners need be listed.

This test addresses BioID-BAG3 (UniProt O95817). In words: proximity labelling; BioID in human AC16 cardiomyocyte cells: transfected with plasmid expressing BioID-BAG3 for 48 h, biotin for 16 h; LC-MS/MS; BAG3_Biotin vs. BioID vector only, adjusted p < 0.05; effect sizes corrected for biotin alone and for BAG3 over-expression; three replicates.

B1: KIF23 (protein, UniProt Q02241 1-960)
chain: MKSARAKTPRKPTVKKGSQTNLKDPVGVYCRVRPLGFPDQECCIEVINNTTVQLHTPEGYRLNRNGDYKETQYSFKQVFGTHTTQKELFDVVANPLVNDLIHGKNGLLFTYGVTGSGKTHTMTGSPGEGGLLPRCLDMIFNSIGSFQAKRYVFKSNDRNSMDIQCEVDALLERQKREAMPNPKTSSSKRQVDPEFADMITVQEFCKAEEVDEDSVYGVFVSYIEIYNNYIYDLLEEVPFDPIKPKPPQSKLLREDKNHNMYVAGCTEVEVKSTEEAFEVFWRGQKKRRIANTHLNRESSRSHSVFNIKLVQAPLDADGDNVLQEKEQITISQLSLVDLAGSERTNRTRAEGNRLREAGNINQSLMTLRTCMDVLRENQMYGTNKMVPYRDSKLTHLFKNYFDGEGKVRMIVCVNPKAEDYEENLQVMRFAEVTQEVEVARPVDKAICGLTPGRRYRNQPRGPVGNEPLVTDVVLQSFPPLPSCEILDINDEQTLPRLIEALEKRHNLRQMMIDEFNKQSNAFKALLQEFDNAVLSKENHMQGKLNEKEKMISGQKLEIERLEKKNKTLEYKIEILEKTTTIYEEDKRNLQQELETQNQKLQRQFSDKRRLEARLQGMVTETTMKWEKECERRVAAKQLEMQNKLWVKDEKLKQLKAIVTEPKTEKPERPSRERDREKVTQRSVSPSPVPLSSNYIAQISNGQQLMSQPQLHRRSNSCSSISVASCISEWEQKIPTYNTPLKVTSIARRRQQEPGQSKTCIVSDRRRGMYWTEGREVVPTFRNEIEIEEDHCGRLLFQPDQNAPPIRLRHRRSRSAGDRWVDHKPASNMQTETVMQPHVPHAITVSVANEKALAKCEKYMLTHQELASDGEIETKLIKGDIYKTRGGGQSVQFTDIETLKQESPNGSRKRRSSTVAPAQPDGAESEWTDVETRCSVAVEMRAGSQLGPGYQHHAQPKRKKP
For the molecule B1, the binding result is given as “binds”.

B2: IFI44 (protein, UniProt Q8TCB0 1-444)
chain: MAVTTRLTWLHEKILQNHFGGKRLSLLYKGSVHGFRNGVLLDRCCNQGPTLTVIYSEDHIIGAYAEESYQEGKYASIILFALQDTKISEWKLGLCTPETLFCCDVTKYNSPTNFQIDGRNRKVIMDLKTMENLGLAQNCTISIQDYEVFRCEDSLDERKIKGVIELRKSLLSALRTYEPYGSLVQQIRILLLGPIGAGKSSFFNSVRSVFQGHVTHQALVGTNTTGISEKYRTYSIRDGKDGKYLPFILCDSLGLSEKEGGLCRDDIFYILNGNIRDRYQFNPMESIKLNHHDYIDSPSLKDRIHCVAFVFDASSIQYFSSQMIVKIKRIRRELVNAGVVHVALLTHVDSMDLITKGDLIEIERCEPVRSKLEEVQRKLGFALSDISVVSNYSSEWELDPVKDVLILSALRRMLWAADDFLEDLPFEQIGNLREEIINCAQGKK
For the molecule B2, the binding entry is listed as “binds”.

B3: MAP3K7 (protein, UniProt O43318 1-606)
chain: MSTASAASSSSSSSAGEMIEAPSQVLNFEEIDYKEIEVEEVVGRGAFGVVCKAKWRAKDVAIKQIESESERKAFIVELRQLSRVNHPNIVKLYGACLNPVCLVMEYAEGGSLYNVLHGAEPLPYYTAAHAMSWCLQCSQGVAYLHSMQPKALIHRDLKPPNLLLVAGGTVLKICDFGTACDIQTHMTNNKGSAAWMAPEVFEGSNYSEKCDVFSWGIILWEVITRRKPFDEIGGPAFRIMWAVHNGTRPPLIKNLPKPIESLMTRCWSKDPSQRPSMEEIVKIMTHLMRYFPGADEPLQYPCQYSDEGQSNSATSTGSFMDIASTNTSNKSDTNMEQVPATNDTIKRLESKLLKNQAKQQSESGRLSLGASRGSSVESLPPTSEGKRMSADMSEIEARIAATTAYSKPKRGHRKTASFGNILDVPEIVISGNGQPRRRSIQDLTVTGTEPGQVSSRSSSPSVRMITTSGPTSEKPTRSHPWTPDDSTDTNGSDNSIPMAYLTLDHQLQPLAPCPNSKESMAVFEQHCKMAQEYMKVQTEIALLLQRKQELVAELDQDEKDQQNTSRLVQEHKKLLDENKSLSTYYQQCKKQLEVIRSQQQKRQGTS
B3: the binding result was “binds”.

B4: FOSL2 (protein, UniProt P15408 1-326)
chain: MYQDYPGNFDTSSRGSSGSPAHAESYSSGGGGQQKFRVDMPGSGSAFIPTINAITTSQDLQWMVQPTVITSMSNPYPRSHPYSPLPGLASVPGHMALPRPGVIKTIGTTVGRRRRDEQLSPEEEEKRRIRRERNKLAAAKCRNRRRELTEKLQAETEELEEEKSGLQKEIAELQKEKEKLEFMLVAHGPVCKISPEERRSPPAPGLQPMRSGGGSVGAVVVKQEPLEEDSPSSSSAGLDKAQRSVIKPISIAGGFYGEEPLHTPIVVTSTPAVTPGTSNLVFTYPSVLEQESPASPSESCSKAHRRSSSSGDQSSDSLNSPTLLAL
Take B4: the binding entry was “binds”.

B5: SP110 (protein, UniProt Q9HB58 1-689)
chain: MFTMTRAMEEALFQHFMHQKLGIAYAIHKPFPFFEGLLDNSIITKRMYMESLEACRNLIPVSRVVHNILTQLERTFNLSLLVTLFSQINLREYPNLVTIYRSFKRVGASYEWQSRDTPILLEAPTGLAEGSSLHTPLALPPPQPPQPSCSPCAPRVSEPGTSSQQSDEILSESPSPSDPVLPLPALIQEGRSTSVTNDKLTSKMNAEEDSEEMPSLLTSTVQVASDNLIPQIRDKEDPQEMPHSPLGSMPEIRDNSPEPNDPEEPQEVSSTPSDKKGKKRKRCIWSTPKRRHKKKSLPGGTASSRHGIQKKLKRVDQVPQKKDDSTCNSTVETRAQKARTECARKSRSEEIIDGTSEMNEGKRSQKTPSTPRRVTQGAASPGHGIQEKLQVVDKVTQRKDDSTWNSEVMMRVQKARTKCARKSRLKEKKKEKDICSSSKRRFQKNIHRRGKPKSDTVDFHCSKLPVTCGEAKGILYKKKMKHGSSVKCIRNEDGTWLTPNEFEVEGKGRNAKNWKRNIRCEGMTLGELLKRKNSDECEVCCQGGQLLCCGTCPRVFHEDCHIPPVEAKRMLWSCTFCRMKRSSGSQQCHHVSKTLERQMQPQDQLIRDYGEPFQEAMWLDLVKERLITEMYTVAWFVRDMRLMFRNHKTFYKASDFGQVGLDLEAEFEKDLKDVLGFHEANDGGFWTLP
In the case of B5, the binding entry is listed as “binds”.

B6: ASNS (protein, UniProt P08243 1-561)
chain: MCGIWALFGSDDCLSVQCLSAMKIAHRGPDAFRFENVNGYTNCCFGFHRLAVVDPLFGMQPIRVKKYPYLWLCYNGEIYNHKKMQQHFEFEYQTKVDGEIILHLYDKGGIEQTICMLDGVFAFVLLDTANKKVFLGRDTYGVRPLFKAMTEDGFLAVCSEAKGLVTLKHSATPFLKVEPFLPGHYEVLDLKPNGKVASVEMVKYHHCRDVPLHALYDNVEKLFPGFEIETVKNNLRILFNNAVKKRLMTDRRIGCLLSGGLDSSLVAATLLKQLKEAQVQYPLQTFAIGMEDSPDLLAARKVADHIGSEHYEVLFNSEEGIQALDEVIFSLETYDITTVRASVGMYLISKYIRKNTDSVVIFSGEGSDELTQGYIYFHKAPSPEKAEEESERLLRELYLFDVLRADRTTAAHGLELRVPFLDHRFSSYYLSLPPEMRIPKNGIEKHLLRETFEDSNLIPKEILWRPKEAFSDGITSVKNSWFKILQEYVEHQVDDAMMANAAQKFPFNTPKTKEGYYYRQVFERHYPGRADWLSHYWMPKWINATDPSARTLTHYKSAVKA
Take B6: the binding entry is given as “binds”.

B7: HEBP1 (protein, UniProt Q9NRV9 1-189)
chain: MLGMIKNSLFGSVETWPWQVLSKGDKEEVAYEERACEGGKFATVEVTDKPVDEALREAMPKVAKYAGGTNDKGIGMGMTVPISFAVFPNEDGSLQKKLKVWFRIPNQFQSDPPAPSDKSVKIEEREGITVYSMQFGGYAKEADYVAQATRLRAALEGTATYRGDIYFCTGYDPPMKPYGRRNEIWLLKT
As to B7, the binding result is listed as “binds”.

B8: SRP19 (protein, UniProt P09132 1-144)
chain: MACAAARSPADQDRFICIYPAYLNNKKTIAEGRRIPISKAVENPTATEIQDVCSAVGLNVFLEKNKMYSREWNRDVQYRGRVRVQLKQEDGSLCLVQFPSRKSVMLYAAEMIPKLKTRTQKTGGADQSLQQGEGSKKGKGKKKK
On to B8, for which the binding result was “binds”.

B9: IRF9 (protein, UniProt Q00978 1-393)
chain: MASGRARCTRKLRNWVVEQVESGQFPGVCWDDTAKTMFRIPWKHAGKQDFREDQDAAFFKAWAIFKGKYKEGDTGGPAVWKTRLRCALNKSSEFKEVPERGRMDVAEPYKVYQLLPPGIVSGQPGTQKVPSKRQHSSVSSERKEEEDAMQNCTLSPSVLQDSLNNEEEGASGGAVHSDIGSSSSSSSPEPQEVTDTTEAPFQGDQRSLEFLLPPEPDYSLLLTFIYNGRVVGEAQVQSLDCRLVAEPSGSESSMEQVLFPKPGPLEPTQRLLSQLERGILVASNPRGLFVQRLCPIPISWNAPQAPPGPGPHLLPSNECVELFRTAYFCRDLVRYFQGLGPPPKFQVTLNFWEESHGSSHTPQNLITVKMEQAFARYLLEQTPEQQAAILSLV
With B9, the binding entry is “binds”.

B10: EEF1B2 (protein, UniProt P24534 1-225)
chain: MGFGDLKSPAGLQVLNDYLADKSYIEGYVPSQADVAVFEAVSSPPPADLCHALRWYNHIKSYEKEKASLPGVKKALGKYGPADVEDTTGSGATDSKDDDDIDLFGSDDEEESEEAKRLREERLAQYESKKAKKPALVAKSSILLDVKPWDDETDMAKLEECVRSIQADGLVWGSSKLVPVGYGIKKLQIQCVVEDDKVGTDMLEEQITAFEDYVQSMDVAAFNKI
On to B10, for which the binding entry was “binds”.

B11: MIF (protein, UniProt P14174 1-115)
chain: MPMFIVNTNVPRASVPDGFLSELTQQLAQATGKPPQYIAVHVVPDQLMAFGGSSEPCALCSLHSIGKIGGAQNRSYSKLLCGLLAERLRISPDRVYINYYDMNAANVGWNNSTFA
Consider B11, for which the binding entry is listed as “binds”.
